Measured values reported in publication doi:10.1101/2021.12.08.471875.

Protein sequences, listed by entry. Tags and fused reporters are not part of them.
UniProt P28632: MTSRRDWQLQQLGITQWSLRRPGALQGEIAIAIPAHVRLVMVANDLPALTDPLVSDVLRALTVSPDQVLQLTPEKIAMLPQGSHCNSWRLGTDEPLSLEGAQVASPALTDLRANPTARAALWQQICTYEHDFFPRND

T1: SeqA (E. coli) (UniProt P0AFY8)
T1 sequence: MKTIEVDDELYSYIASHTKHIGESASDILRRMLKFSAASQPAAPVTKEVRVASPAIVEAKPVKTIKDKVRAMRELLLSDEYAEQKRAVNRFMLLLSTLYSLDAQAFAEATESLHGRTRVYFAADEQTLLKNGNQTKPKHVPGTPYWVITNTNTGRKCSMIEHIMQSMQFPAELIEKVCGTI

T2: NrdB, a ribonuclotide reductase (RNR) subunit (E. coli) (UniProt P69924)
T2 sequence: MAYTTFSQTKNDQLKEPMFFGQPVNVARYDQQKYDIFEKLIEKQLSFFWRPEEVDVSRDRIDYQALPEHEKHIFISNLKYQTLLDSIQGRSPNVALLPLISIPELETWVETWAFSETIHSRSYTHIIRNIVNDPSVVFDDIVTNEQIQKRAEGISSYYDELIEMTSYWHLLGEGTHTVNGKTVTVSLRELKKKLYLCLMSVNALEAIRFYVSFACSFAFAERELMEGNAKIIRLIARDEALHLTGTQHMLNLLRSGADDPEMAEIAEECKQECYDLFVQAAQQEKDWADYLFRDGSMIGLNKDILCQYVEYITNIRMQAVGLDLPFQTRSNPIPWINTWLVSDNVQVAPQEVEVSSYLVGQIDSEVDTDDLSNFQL


Experiments:
Assay in all cases: affinity purification with mass spectrometry
[1] = target: HolD (E. coli) (UniProt P28632)
[2] = target: T1, SeqA (E. coli)
[3] = target: T2, NrdB, a ribonuclotide reductase (RNR) subunit (E. coli)

| Binder | binding [1] | binding [3] | other results |
| --- | --- | --- | --- |
| PlsB (enzyme, UniProt P0A7A7 1-807) MSGWPRIYYKLLNLPLSILVKSKSIPADPAPELGLDTSRPIMYVLPYNSKADLLTLRAQCLAHDLPDPLEPLEIDGTLLPRYVFIHGGPRVFTYYTPKEESIKLFHDYLDLHRSNPNLDVQMVPVSVMFGRAPGREKGEVNPPLRMLNGVQKFFAVLWLGRDSFVRFSPSVSLRRMADEHGTDKTIAQKLARVARMHFARQRLAAVGPRLPARQDLFNKLLASRAIAKAVEDEARSKKISHEKAQQNAIALMEEIAANFSYEMIRLTDRILGFTWNRLYQGINVHNAERVRQLAHDGHELVYVPCHRSHMDYLLLSYVLYHQGLVPPHIAAGINLNFWPAGPIFRRLGAFFIRRTFKGNKLYSTVFREYLGELFSRGYSVEYFVEGGRSRTGRLLDPKTGTLSMTIQAMLRGGTRPITLIPIYIGYEHVMEVGTYAKELRGATKEKESLPQMLRGLSKLRNLGQGYVNFGEPMPLMTYLNQHVPDWRESIDPIEAVRPAWLTPTVNNIAADLMVRINNAGAANAMNLCCTALLASRQRSLTREQLTEQLNCYLDLMRNVPYSTDSTVPSASASELIDHALQMNKFEVEKDTIGDIIILPREQAVLMTYYRNNIAHMLVLPSLMAAIVTQHRHISRDVLMEHVNVLYPMLKAELFLRWDRDELPDVIDALANEMQRQGLITLQDDELHINPAHSRTLQLLAAGARETLQRYAITFWLLSANPSINRGTLEKESRTVAQRLSVLHGINAPEFFDKAVFSSLVLTLRDEGYISDSGDAEPAETMKVYQLLAELITSDVRLTIESATQGEG | – | – | binding [2]: binds |
| HldE (enzyme, UniProt P76658 1-477) MKVTLPEFERAGVMVVGDVMLDRYWYGPTSRISPEAPVPVVKVNTIEERPGGAANVAMNIASLGANARLVGLTGIDDAARALSKSLADVNVKCDFVSVPTHPTITKLRVLSRNQQLIRLDFEEGFEGVDPQPLHERINQALSSIGALVLSDYAKGALASVQQMIQLARKAGVPVLIDPKGTDFERYRGATLLTPNLSEFEAVVGKCKTEEEIVERGMKLIADYELSALLVTRSEQGMSLLQPGKAPLHMPTQAQEVYDVTGAGDTVIGVLAATLAAGNSLEEACFFANAAAGVVVGKLGTSTVSPIELENAVRGRADTGFGVMTEEELKLAVAAARKRGEKVVMTNGVFDILHAGHVSYLANARKLGDRLIVAVNSDASTKRLKGDSRPVNPLEQRMIVLGALEAVDWVVSFEEDTPQRLIAGILPDLLVKGGDYKPEEIAGSKEVWANGGEVLVLNFEDGCSTTNIIKKIQQDKKG | – | binds | – |
| PriB (protein, UniProt P07013 1-104) MTNRLVLSGTVCRAPLRKVSPSGIPHCQFVLEHRSVQEEAGFHRQAWCQMPVIVSGHENQAITHSITVGSRITVQGFISCHKAKNGLSKMVLHAEQIELIDSGD | – | binds | – |
| NrdA (protein, UniProt P00452 1-761) MNQNLLVTKRDGSTERINLDKIHRVLDWAAEGLHNVSISQVELRSHIQFYDGIKTSDIHETIIKAAADLISRDAPDYQYLAARLAIFHLRKKAYGQFEPPALYDHVVKMVEMGKYDNHLLEDYTEEEFKQMDTFIDHDRDMTFSYAAVKQLEGKYLVQNRVTGEIYESAQFLYILVAACLFSNYPRETRLQYVKRFYDAVSTFKISLPTPIMSGVRTPTRQFSSCVLIECGDSLDSINATSSAIVKYVSQRAGIGINAGRIRALGSPIRGGEAFHTGCIPFYKHFQTAVKSCSQGGVRGGAATLFYPMWHLEVESLLVLKNNRGVEGNRVRHMDYGVQINKLMYTRLLKGEDITLFSPSDVPGLYDAFFADQEEFERLYTKYEKDDSIRKQRVKAVELFSLMMQERASTGRIYIQNVDHCNTHSPFDPAIAPVRQSNLCLEIALPTKPLNDVNDENGEIALCTLSAFNLGAINNLDELEELAILAVRALDALLDYQDYPIPAAKRGAMGRRTLGIGVINFAYYLAKHGKRYSDGSANNLTHKTFEAIQYYLLKASNELAKEQGACPWFNETTYAKGILPIDTYKKDLDTIANEPLHYDWEALRESIKTHGLRNSTLSALMPSETSSQISNATNGIEPPRGYVSIKASKDGILRQVVPDYEHLHDAYELLWEMPGNDGYLQLVGIMQKFIDQSISANTNYDPSRFPSGKVPMQQLLKDLLTAYKFGVKTLYYQNTRDGAEDAQDDLVPSIQDDGCESGACKI | – | binds | – |
| GuaA (enzyme, UniProt P04079 1-525) MTENIHKHRILILDFGSQYTQLVARRVRELGVYCELWAWDVTEAQIRDFNPSGIILSGGPESTTEENSPRAPQYVFEAGVPVFGVCYGMQTMAMQLGGHVEASNEREFGYAQVEVVNDSALVRGIEDALTADGKPLLDVWMSHGDKVTAIPSDFITVASTESCPFAIMANEEKRFYGVQFHPEVTHTRQGMRMLERFVRDICQCEALWTPAKIIDDAVARIREQVGDDKVILGLSGGVDSSVTAMLLHRAIGKNLTCVFVDNGLLRLNEAEQVLDMFGDHFGLNIVHVPAEDRFLSALAGENDPEAKRKIIGRVFVEVFDEEALKLEDVKWLAQGTIYPDVIESAASATGKAHVIKSHHNVGGLPKEMKMGLVEPLKELFKDEVRKIGLELGLPYDMLYRHPFPGPGLGVRVLGEVKKEYCDLLRRADAIFIEELRKADLYDKVSQAFTVFLPVRSVGVMGDGRKYDWVVSLRAVETIDFMTAHWAHLPYDFLGRVSNRIINEVNGISRVVYDISGKPPATIEWE | binds | – | – |
| RfaD (enzyme, UniProt P67910 1-310) MIIVTGGAGFIGSNIVKALNDKGITDILVVDNLKDGTKFVNLVDLNIADYMDKEDFLIQIMAGEEFGDVEAIFHEGACSSTTEWDGKYMMDNNYQYSKELLHYCLEREIPFLYASSAATYGGRTSDFIESREYEKPLNVYGYSKFLFDEYVRQILPEANSQIVGFRYFNVYGPREGHKGSMASVAFHLNTQLNNGESPKLFEGSENFKRDFVYVGDVADVNLWFLENGVSGIFNLGTGRAESFQAVADATLAYHKKGQIEYIPFPDKLKGRYQAFTQADLTNLRAAGYDKPFKTVAEGVTEYMAWLNRDA | – | – | binding [2]: binds |
| FbaB (enzyme, UniProt P0A991 1-350) MTDIAQLLGKDADNLLQHRCMTIPSDQLYLPGHDYVDRVMIDNNRPPAVLRNMQTLYNTGRLAGTGYLSILPVDQGVEHSAGASFAANPLYFDPKNIVELAIEAGCNCVASTYGVLASVSRRYAHRIPFLVKLNHNETLSYPNTYDQTLYASVEQAFNMGAVAVGATIYFGSEESRRQIEEISAAFERAHELGMVTVLWAYLRNSAFKKDGVDYHVSADLTGQANHLAATIGADIVKQKMAENNGGYKAINYGYTDDRVYSKLTSENPIDLVRYQLANCYMGRAGLINSGGAAGGETDLSDAVRTAVINKRAGGMGLILGRKAFKKSMADGVKLINAVQDVYLDSKITIA | – | binds | – |

Further lines, with some results ahead:

| binding [1] | binding [3] | Binder | other results |
| --- | --- | --- | --- |
| binds | – | topoisomerase III (protein, UniProt P14294 1-653) MRLFIAEKPSLARAIADVLPKPHRKGDGFIECGNGQVVTWCIGHLLEQAQPDAYDSRYARWNLADLPIVPEKWQLQPRPSVTKQLNVIKRFLHEASEIVHAGDPDREGQLLVDEVLDYLQLAPEKRQQVQRCLINDLNPQAVERAIDRLRSNSEFVPLCVSALARARADWLYGINMTRAYTILGRNAGYQGVLSVGRVQTPVLGLVVRRDEEIENFVAKDFFEVKAHIVTPADERFTAIWQPSEACEPYQDEEGRLLHRPLAEHVVNRISGQPAIVTSYNDKRESESAPLPFSLSALQIEAAKRFGLSAQNVLDICQKLYETHKLITYPRSDCRYLPEEHFAGRHAVMNAISVHAPDLLPQPVVDPDIRNRCWDDKKVDAHHAIIPTARSSAINLTENEAKVYNLIARQYLMQFCPDAVFRKCVIELDIAKGKFVAKARFLAEAGWRTLLGSKERDEENDGTPLPVVAKGDELLCEKGEVVERQTQPPRHFTDATLLSAMTGIARFVQDKDLKKILRATDGLGTEATRAGIIELLFKRGFLTKKGRYIHSTDAGKALFHSLPEMATRPDMTAHWESVLTQISEKQCRYQDFMQPLVGTLYQLIDQAKRTPVRQFRGIVAPGSGGSADKKKAAPRKRSAKKSPPADEVGSGAIA | – |
| binds | – | SspA (protein, UniProt P0ACA3 1-212) MAVAANKRSVMTLFSGPTDIYSHQVRIVLAEKGVSFEIEHVEKDNPPQDLIDLNPNQSVPTLVDRELTLWESRIIMEYLDERFPHPPLMPVYPVARGESRLYMHRIEKDWYTLMNTIINGSASEADAARKQLREELLAIAPVFGQKPYFLSDEFSLVDCYLAPLLWRLPQLGIEFSGPGAKELKGYMTRVFERDSFLASLTEAEREMRLGRS | – |
| – | binds | RlmE (enzyme, UniProt P0C0R7 1-209) MTGKKRSASSSRWLQEHFSDKYVQQAQKKGLRSRAWFKLDEIQQSDKLFKPGMTVVDLGAAPGGWSQYVVTQIGGKGRIIACDLLPMDPIVGVDFLQGDFRDELVMKALLERVGDSKVQVVMSDMAPNMSGTPAVDIPRAMYLVELALEMCRDVLAPGGSFVVKVFQGEGFDEYLREIRSLFTKVKVRKPDSSRARSREVYIVATGRKP | – |

Results are given in words; binding and its absence hold for the method and conditions named. Binding seen in cells or lysates may run through a third protein. A yes stands for co-enrichment or nearness to the bait. Other partners may have been found.
